# Primary screen of a compound library

The values are deposited in ChEMBL (CHEMBL3988442, “University of Dundee, Small-Polar-MMV Screening Library” (2021)).

A: 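Assay on Mycobacterium tuberculosis, filed only as a heat shock assay from Cornell; the read-out is not stated. The concentration is filed as 10 mM, unlikely as a test dose, so the dose is not known. The record gives no direction; compounds that gave an IC50 in retests scored well above the rest, so higher reads as stronger inhibition. Size under these conditions: about 69,000 compounds, about 930 of them at 50% or above in at least one test.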
B: 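Whole-cell assay for inhibitors of Mycobacterium tuberculosis growth, labelled Cornell in the record; the read-out is not stated. The concentration is filed as 10 mM, unlikely as a test dose, so the dose is not known. The record gives no direction; compounds strong in two other growth screens of this library score well above the rest, so higher reads as stronger inhibition. About 53,000 compounds were tested under these conditions; 1.7% (about 900) showed 50% or more at least once.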

The filed quantity is “Percent Effect” (%).
The controls that fix the scale are not given in the record; negative values are as filed.
The compounds are a random part of those screened.
A dash means the value is not listed here; it may have been measured.

| # | SMILES | A | B |
|---|---|---|---|
| 1 | `Cl.Clc1ccccc1CN1CCc2nc(C3CCCNC3)ncc2C1` (stereo not shown) | 28.32% | -11.36% |
| 2 | `CN1CC(c2ccccc2)CC2(CCN(Cc3ncc[nH]3)CC2)C1` (stereo not shown) | -124.3% | - |
| 3 | `Cc1cnc(CCNC(=O)C2CN(C(=O)Cc3ccc(F)cc3)C2)s1` | -12.02% | -10.56% |
| 4 | `OC1CCN(CCNc2ncc3c(n2)CCN3c2ccccc2)CC1` | -5.755% | - |
| 5 | `COCCCN1Cc2cccc(NC(=O)c3cc(F)cc(F)c3)c2C1` | -3.685% | 14.07% |
| 6 | `Cc1c(Cl)c(C(=O)N2C[C@@H](C(=O)O)[C@H](c3cccnc3)C2)nn1C` | 20.46% | -18.65% |
| 7 | `CN(Cc1cc2n(n1)CCN(C(=O)c1cccnc1)C2)Cc1nccs1` | 13.52% | - |
| 8 | `O=C(O)C(F)(F)F.O=C(O)C(F)(F)F.O=C(O)C(F)(F)F.OCCN1CCC2(CC1)CC(NCc1ccccn1)c1ccccc1O2` (stereo not shown) | -19.17% | -16.86% |
| 9 | `Cc1cc(=O)n2ncnc2n1CC(O)c1ccc(F)cc1F` (stereo not shown) | -14.7% | 12% |
| 10 | `Cn1cc(CN2CCOCC3(CCN(C4CCOCC4)C3)C2)cn1` (stereo not shown) | -24.75% | -31.32% |
| 11 | `O=C(NCC1CCC1)c1ccnc(-n2ccnc2)c1` | 33.51% | 15.84% |
| 12 | `CCNC(=O)C1CCN(Cc2ccc(C(=O)Nc3nnc(C)s3)cc2)C1` (stereo not shown) | 5.958% | -12.84% |
| 13 | `CC(C)(C)c1cnc(CN2CCC(CN3CCOCC3)CC2)o1` | -21.24% | - |
| 14 | `Cn1nc(CNC(=O)C2CCC2)cc1C1CC1` | 12.04% | 37.58% |
| 15 | `CN1C(=O)CC(C(=O)O)C12CCN(Cc1ccc(Cl)c(Cl)c1)CC2` (stereo not shown) | 17.01% | 4.307% |
| 16 | `O=C1N(CCc2ccccc2)CCCC1(O)CNCc1ccc(F)cc1` (stereo not shown) | -19.96% | - |
| 17 | `CCOC(C)c1nc(Cn2cccn2)cs1` (stereo not shown) | -1.178% | 9.263% |
| 18 | `c1cc2c(cc1Cn1cc(C3CCOC3)nn1)OCO2` (stereo not shown) | -16.27% | - |
| 19 | `CN(Cc1ccccc1OC(F)(F)F)C(=O)C1CC1` | 6.346% | -27.58% |
| 20 | `Cc1n[nH]c(C)c1CC(=O)NCc1ccccc1Cl` | 0.3953% | 48.87% |
| 21 | `CCCSc1ncc(-c2nccn2CCO)cn1` | -27.14% | 16.5% |
| 22 | `COc1ccccc1C(=O)N(C)Cc1nnc2ccccn12` | 3.189% | - |
| 23 | `Cn1cc(CN2CCc3ccc(=O)n(CC4CC4)c3CC2)cn1` | 3.769% | -1.543% |
| 24 | `Cc1cc(-c2cncnc2)nc(C2CCCN2S(C)(=O)=O)n1` (stereo not shown) | 16.54% | 8.184% |
| 25 | `O=C(NCc1ccccn1)NCC(O)c1ccccc1C(F)(F)F` (stereo not shown) | 13.8% | -11.19% |
| 26 | `CC(C)CNC(=O)C1=NOC2(CCN(Cc3ccoc3)C2)C1` (stereo not shown) | 37.77% | -6.374% |
| 27 | `CC(C)Cc1nc(CN2CCC3(CCCO3)CCC2=O)no1` (stereo not shown) | -2.223% | -2.113% |
| 28 | `CC(=O)N1CCN(CC=C(C)C)CC1` | 7.651% | -10.56% |
| 29 | `Cc1nccn1-c1ccc(C(C)NCCC(C)C)cc1` (stereo not shown) | -0.7955% | -35.63% |
| 30 | `COCCCN(Cc1cc(O)nc2ccccc12)C(=O)NC(C)C` | -0.9795% | -2.603% |
| 31 | `Cn1ccnc1-c1ccc(NCC2COc3ccccc3O2)nn1` (stereo not shown) | 32.53% | 75.27% |
| 32 | `CCc1cc(NCCNc2ccncc2C)n2nc(C)c(C)c2n1` | 10.67% | 22.44% |
| 33 | `Cc1nc2c(c(=O)n1C)CCN(C(=O)Cn1cccc1)CC2` | -30.87% | - |
| 34 | `CCn1ccc(NC(=O)CCc2c(C)nn(C)c2C)n1` | 7.54% | -24.17% |
| 35 | `Cn1cc(CNCCOc2ccc(F)c(F)c2)c(-c2cccnc2)n1` | -24.99% | -4.935% |
| 36 | `O=C(O)C(F)(F)F.[H][C@]12CC[C@@]3(N=C(c4ccccc4)NC3=O)[C@@]1([H])CN(CC1CC1)C2` | -38.44% | 12.5% |
| 37 | `Cc1noc(Cl)c1CCC(=O)N1CCN(c2ncccn2)CC1` | 36.04% | 30.54% |
| 38 | `C=Cn1cc(CN2CCC(c3ncc(Cl)cc3S(C)(=O)=O)CC2)c(C)n1` | 1.052% | 48.69% |
| 39 | `Cc1nc(-c2ccnc(N3CCNCC3)n2)no1.Cl.Cl` | 10.1% | 33.84% |
| 40 | `CCc1csc(C2CCCN(C(=O)CCn3cc(C)cn3)C2)n1` (stereo not shown) | -15.35% | -38.25% |
| 41 | `O=C(NC1CC1)c1cc(C(F)(F)F)cc(C(F)(F)F)n1` | -3.708% | -31.63% |
| 42 | `CC1COCCN1C(=O)c1cnccn1` (stereo not shown) | 20.93% | -12.6% |
| 43 | `CN(Cc1ccc(Cl)s1)C(=O)Cn1nc(-c2ccc(F)cc2)oc1=O` | -37.04% | 28.71% |
| 44 | `O=C(O)C(F)(F)F.[H][C@]12C[C@@H](CN(C)C)N(C(C)=O)[C@@]1([H])CCN(C(=O)Cc1cccs1)C2` | -7.147% | 8.563% |
| 45 | `[H][C@]12CCC[C@@]1(COC)CN(C(=O)COc1ccccc1OC)C2` | 0.55% | 12.15% |
| 46 | `CCN(CC)C(=O)CCNC(=O)N1CCC(c2ccccc2)C1` (stereo not shown) | -7.107% | - |
| 47 | `Cc1ccc(N2CCCC(NCc3c(C)noc3C)C2)nn1` (stereo not shown) | 3.32% | - |
| 48 | `CCS(=O)(=O)N1Cc2c(Cn3ccnc3)nn(C(C)C)c2C1` | -9.218% | -27.75% |
| 49 | `O=C(NCCC1=CCCCC1)Nc1cc(C(F)(F)F)c[nH]c1=O` | 21.7% | - |
| 50 | `NC(=O)c1csc(N2CCCC(c3nc4ccccc4[nH]3)C2)n1` (stereo not shown) | -3.103% | 18.74% |
| 51 | `CCC(NC(=O)NCc1cccc(N(C)C)n1)c1ccccc1OC` (stereo not shown) | -32.28% | 28.4% |
| 52 | `CC(C)C(=O)NS(=O)(=O)CCc1ccccc1` | -11.94% | 8.681% |
| 53 | `CCN1CCC2(CCN(Cc3nccs3)CC2)C1=O.O=C(O)C(F)(F)F` | -10.38% | 9.685% |
| 54 | `Cc1nc(CN2CCCC(N(C)CCOCC(F)(F)F)C2)no1` (stereo not shown) | -3.922% | - |
| 55 | `Cc1nc(C2(NCc3cc(C#N)ccc3F)CCCCC2)no1` | 20.97% | 17.88% |
| 56 | `CC(C)(C)OC(=O)N1CC(CC(=O)NCc2ccnc(C3CC3)c2)C1` | -0.2921% | -13.71% |
| 57 | `O=C(NCc1cc[nH]n1)NCC(c1ccco1)N1CCCC1` (stereo not shown) | 20.77% | 25.82% |
| 58 | `CCn1nc2c(cc1=O)CN(CC(=O)Nc1cc(C)no1)CC2` | 3.972% | -3.513% |
| 59 | `O=C(c1cccc(=O)[nH]1)N(Cc1ccsc1)CC1CCCO1` (stereo not shown) | -10.2% | - |
| 60 | `CN1CCN(S(=O)(=O)c2ccc3c(c2)CN(C(=O)C(C)(C)C)CC3)CC1` | 14.92% | -14.78% |
| 61 | `c1cnc2[nH]c(C3CCCC3)c(CN3CCCCC3)c2c1` | 5.007% | 34.75% |
| 62 | `O=C(O)C(F)(F)F.O=C(O)C(F)(F)F.[H][C@@]12CO[C@@H](CN(C)Cc3ccco3)[C@]1([H])CCN(Cc1nccs1)C2` | -28.72% | -53.09% |
| 63 | `CC(C)C[C@H](NC(=O)Cc1csc(-c2cccc(Cl)c2)n1)C(=O)O` | -2.754% | - |
| 64 | `Cc1cc(C(=O)NCCC(C)C)ccc1NS(C)(=O)=O` | -2.251% | -53.75% |
| 65 | `CN(C)c1cc(C(=O)N2CCCC2)ccn1` | 32.94% | - |
| 66 | `CC(O)CN1CCC(CN(C)Cc2cccc(C#N)c2)CC1` (stereo not shown) | -13.95% | 33.76% |
| 67 | `CCOCCNC(=O)c1cccnc1N1CCCC1c1ccccn1` (stereo not shown) | -3.066% | 11.21% |
| 68 | `CS(=O)(=O)CCCN(CCc1cccc(F)c1)C1CC1` | -17.84% | -17.09% |
| 69 | `O=C(O)C(F)(F)F.c1ccc(CN2CCc3ncnc(-c4ccoc4)c3CC2)nc1` | -1.068% | 47.09% |
| 70 | `Cc1nc2c(c(=O)[nH]1)CN(Cc1ccc3c(c1)CCCN3C)CC2` | 15.3% | 6.951% |
| 71 | `[H][C@]12CN(C(=O)c3ccno3)CCN1C(=O)N(Cc1ccc(C)cc1)C2` | -17.18% | - |
| 72 | `COc1cc(C)c(NC(=O)NCCn2cccc2)cc1OC` | -11.38% | -30.01% |
| 73 | `O=C(O)C(F)(F)F.O=C(O)C(F)(F)F.[H][C@@]12CN(Cc3nccs3)CCC[C@]1(C(=O)OCC)CN(CC(C)C)C2` | -6.363% | 14.17% |
| 74 | `[H][C@]12CCCCN1CCC[C@@]2(O)CNCCCOc1cccnc1` | 3.033% | -15.82% |
| 75 | `O=C(O)C(F)(F)F.O=C(c1cscn1)N1CCc2c(COCC3CC3)cncc2C1` | 42.21% | -0.7034% |
| 76 | `CC(=O)Nc1ccc(-n2cncn2)c(F)c1` | 4.479% | - |
| 77 | `Cc1cc(C)c(CNC(=O)NCC(c2ccccc2)N(C)C)c(=O)[nH]1` (stereo not shown) | -22.6% | 13.38% |
| 78 | `COc1ccccc1CN(C)c1nc2c(cnn2C)c(=O)[nH]1` | 6.226% | -16.04% |
| 79 | `COc1ccc(C(C(=O)O)N(C)CCN2CCCC2)cc1F` (stereo not shown) | -24.16% | -11.54% |
| 80 | `O=C(O)C(F)(F)F.[H][C@@]12CN(C(=O)c3cccc(C)n3)C[C@]1([H])[C@@H]2CC(=O)NC(C)C` | -2.282% | - |
| 81 | `COCCN1CCN(CC(O)c2ccc(OC(F)(F)F)cc2)CC1` (stereo not shown) | -7.654% | - |
| 82 | `COc1ccc(CNCc2ccnc(N3CCCC3)c2)c(OC)c1.Cl` | 15.53% | - |
| 83 | `CC(Oc1ccc(F)cc1)C(=O)N(CC(N)=O)C1CCCC1` (stereo not shown) | 8.615% | 13.34% |
| 84 | `O=C(NCC1CCN(c2ccncc2)CC1)C(O)c1ccccc1` (stereo not shown) | -21.25% | 19.79% |